This is an account of results in PMC13215057.

Protein sequences, listed by entry. Tags and fused reporters are not part of them. Residues count along the entry.
UniProt Q9Z1Y3, residues 160-906: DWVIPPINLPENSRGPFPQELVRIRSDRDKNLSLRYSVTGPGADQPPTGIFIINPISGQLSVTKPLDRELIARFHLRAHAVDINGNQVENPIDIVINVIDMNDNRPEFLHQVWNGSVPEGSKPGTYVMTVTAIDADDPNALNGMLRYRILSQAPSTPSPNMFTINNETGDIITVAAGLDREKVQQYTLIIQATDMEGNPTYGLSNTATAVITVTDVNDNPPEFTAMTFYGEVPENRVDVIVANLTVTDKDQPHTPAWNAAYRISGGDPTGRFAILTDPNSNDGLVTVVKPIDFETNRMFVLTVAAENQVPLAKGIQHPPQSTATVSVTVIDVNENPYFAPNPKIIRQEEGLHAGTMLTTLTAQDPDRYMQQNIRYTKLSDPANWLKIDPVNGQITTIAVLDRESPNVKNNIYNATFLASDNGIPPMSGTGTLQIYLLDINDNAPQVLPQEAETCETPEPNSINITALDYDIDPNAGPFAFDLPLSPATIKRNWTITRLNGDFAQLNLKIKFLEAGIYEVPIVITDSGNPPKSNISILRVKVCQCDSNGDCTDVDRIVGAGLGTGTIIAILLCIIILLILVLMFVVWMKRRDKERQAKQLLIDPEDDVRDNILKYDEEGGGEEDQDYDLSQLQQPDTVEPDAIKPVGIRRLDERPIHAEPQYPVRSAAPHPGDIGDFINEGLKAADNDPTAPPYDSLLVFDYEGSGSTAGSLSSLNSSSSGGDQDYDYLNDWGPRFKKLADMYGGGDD

These are yes or no findings as the source states them, for the method shown. In cells and extracts the contact can be indirect. Some results given as binding are weak or reduced against the parent protein; the word gives no strength.

In this test the target is N-cadherin (endogenous, Can 10 cells) (rat (endogenous in Can 10)) (UniProt Q9Z1Y3). In words: cross-linking + co-IP; ReCLIP of endogenous proteins: Can 10 cells treated with 0.5 mM DSP 30 min at RT, lysed in RIPA buffer, precipitated with control IgG, anti-E-cadherin or anti-N-cadherin antibody on protein G Sepharose 2 h at 4°C, eluted with reducing agents, immunoblot. A general note: A western blot detects proteins with antibodies after separation by electrophoresis.

B1: ARVCF (endogenous, Can 10 cells) (protein, UniProt B4F7F3 1-973)
chain: MEDCNVHSAASILASVKEQEARFERLTRALEQERRHVALQLERAQQPGMSSGGMVGSGQPLPMAWQQLVLQEQSPGSQASLATMPEAPEVLEETVTVEEDPGTPTSHVSIVTSEDGTTRRTETKVTKTVKTVTTRTVRQVPLGPDGLPLLDGGPPLGSFADGPLDRHYVLRGGGPAATLSRAYLSSGGGFPDGPEPRDIPSYGSLSRGLGVRPPRTGLLGPGPGDGCFTLPGRREAFPMGSESGPPSGRSLPEHFQAEPYGLEDDTRSLAADDEGGPDLEPDYSTATRRRPEYGRGLRARALEDTADDTGELVEERPPFPAATAPLAQPERGSLGSLDRVVRRSPSVDSTRKEPRWRDPELPEVLAMLRHPVDPVKANAAAYLQHLCFENEGIKRRVRQLRGLPLLVALLDHPRAEVRRRACGALRNLSYGRDADNKAAIRDCGGVPALVRLLRAARDNEVRELVTGTLWNLSSYEPLKMVIIDHGLQTLTHEVIVPHSGWEREPNEDSKPRDAEWTTVFKNTSGCLRNVSSDGAEARRRLRECEGLVDALLHALQSAVGRKDTDNKSVENCVCIMRNLSYHVHKEVPGADRYQEVEPGIPGSAATSQRRRKDDASCFGGKKAKGKKDAEADRNFDTLDLPKRTEAAKGFELLYQPEVVRLYLSLLTESRNFNTLEAAAGALQNLSAGNWMWATYIRATVRKERGLPVLVELLQSETDKVVRAVAIALRNLSLDQRNKDLIGSYAMTELVRNVRNAQAPAHPSAHLEEDTVVAVLNTIHEIVSDSLDNARSLLQARGVPALVALVASSQSVREAKAASHVLQTVWSYKELRGALQRDGWTKAHFQSASTAKGPKGTPNSGGFDDSTLPLVDKNLDGEKSTTRDVIPMDTLGPDGYSTVDRRERRTLGSDSIGDSSEKELLKGPGPAVCSSDHMEVIGRGPSGTDPVLGPGAPPFCVGLAKPLVYLALPSSLLS
In the case of B1, the binding result is “binds”.
